Test results published in patent US20090221476A1 (UNIVERSITE D ANGERS, published 2009).

By UniProt entry, the sequences of proteins in these tests, tags left out. Residues count along the entry.
UniProt P08551, 2-543 limits assumed, chain 1 of 3: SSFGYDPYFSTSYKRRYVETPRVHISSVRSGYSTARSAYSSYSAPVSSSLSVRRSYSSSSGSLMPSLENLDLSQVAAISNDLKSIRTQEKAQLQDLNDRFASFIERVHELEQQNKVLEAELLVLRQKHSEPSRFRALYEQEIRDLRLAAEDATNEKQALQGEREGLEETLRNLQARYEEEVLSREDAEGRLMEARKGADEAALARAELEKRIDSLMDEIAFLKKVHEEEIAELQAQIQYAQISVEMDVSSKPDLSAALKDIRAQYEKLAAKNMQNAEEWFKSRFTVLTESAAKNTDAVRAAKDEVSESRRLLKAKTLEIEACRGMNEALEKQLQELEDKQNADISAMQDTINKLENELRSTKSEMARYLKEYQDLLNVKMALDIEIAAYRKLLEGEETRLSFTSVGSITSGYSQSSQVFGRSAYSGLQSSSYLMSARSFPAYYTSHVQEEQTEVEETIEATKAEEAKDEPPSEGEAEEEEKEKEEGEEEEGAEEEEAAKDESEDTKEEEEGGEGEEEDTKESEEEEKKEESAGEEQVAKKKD
neurofilaments (assembled, purified from mouse brain and spinal cord at 4 C), UniProt P08553, 2-848 limits assumed, chain 2 of 3: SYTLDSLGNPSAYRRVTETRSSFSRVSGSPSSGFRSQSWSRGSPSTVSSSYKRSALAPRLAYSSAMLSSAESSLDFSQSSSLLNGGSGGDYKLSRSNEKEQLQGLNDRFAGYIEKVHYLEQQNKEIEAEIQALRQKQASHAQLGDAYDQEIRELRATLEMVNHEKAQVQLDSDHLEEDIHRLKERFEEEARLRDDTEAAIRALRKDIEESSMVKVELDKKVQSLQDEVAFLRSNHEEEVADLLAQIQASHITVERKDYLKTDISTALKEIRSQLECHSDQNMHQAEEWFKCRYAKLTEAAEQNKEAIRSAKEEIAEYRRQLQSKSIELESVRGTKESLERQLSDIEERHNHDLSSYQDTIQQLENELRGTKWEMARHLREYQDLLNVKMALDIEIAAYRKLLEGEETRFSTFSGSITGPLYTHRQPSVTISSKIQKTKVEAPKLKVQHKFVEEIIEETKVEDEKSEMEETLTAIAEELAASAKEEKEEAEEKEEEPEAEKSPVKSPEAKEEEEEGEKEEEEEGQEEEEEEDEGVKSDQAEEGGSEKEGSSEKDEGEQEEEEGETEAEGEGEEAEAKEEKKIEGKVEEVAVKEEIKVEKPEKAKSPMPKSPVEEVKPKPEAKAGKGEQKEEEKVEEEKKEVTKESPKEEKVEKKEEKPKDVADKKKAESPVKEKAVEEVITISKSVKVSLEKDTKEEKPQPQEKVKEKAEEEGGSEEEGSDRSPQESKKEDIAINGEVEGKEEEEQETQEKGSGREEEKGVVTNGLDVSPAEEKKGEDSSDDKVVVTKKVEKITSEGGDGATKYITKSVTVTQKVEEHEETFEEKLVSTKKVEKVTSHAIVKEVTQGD
neurofilaments (assembled, purified from mouse brain and spinal cord at 4 C), UniProt P19246, whole entry, chain 3 of 3: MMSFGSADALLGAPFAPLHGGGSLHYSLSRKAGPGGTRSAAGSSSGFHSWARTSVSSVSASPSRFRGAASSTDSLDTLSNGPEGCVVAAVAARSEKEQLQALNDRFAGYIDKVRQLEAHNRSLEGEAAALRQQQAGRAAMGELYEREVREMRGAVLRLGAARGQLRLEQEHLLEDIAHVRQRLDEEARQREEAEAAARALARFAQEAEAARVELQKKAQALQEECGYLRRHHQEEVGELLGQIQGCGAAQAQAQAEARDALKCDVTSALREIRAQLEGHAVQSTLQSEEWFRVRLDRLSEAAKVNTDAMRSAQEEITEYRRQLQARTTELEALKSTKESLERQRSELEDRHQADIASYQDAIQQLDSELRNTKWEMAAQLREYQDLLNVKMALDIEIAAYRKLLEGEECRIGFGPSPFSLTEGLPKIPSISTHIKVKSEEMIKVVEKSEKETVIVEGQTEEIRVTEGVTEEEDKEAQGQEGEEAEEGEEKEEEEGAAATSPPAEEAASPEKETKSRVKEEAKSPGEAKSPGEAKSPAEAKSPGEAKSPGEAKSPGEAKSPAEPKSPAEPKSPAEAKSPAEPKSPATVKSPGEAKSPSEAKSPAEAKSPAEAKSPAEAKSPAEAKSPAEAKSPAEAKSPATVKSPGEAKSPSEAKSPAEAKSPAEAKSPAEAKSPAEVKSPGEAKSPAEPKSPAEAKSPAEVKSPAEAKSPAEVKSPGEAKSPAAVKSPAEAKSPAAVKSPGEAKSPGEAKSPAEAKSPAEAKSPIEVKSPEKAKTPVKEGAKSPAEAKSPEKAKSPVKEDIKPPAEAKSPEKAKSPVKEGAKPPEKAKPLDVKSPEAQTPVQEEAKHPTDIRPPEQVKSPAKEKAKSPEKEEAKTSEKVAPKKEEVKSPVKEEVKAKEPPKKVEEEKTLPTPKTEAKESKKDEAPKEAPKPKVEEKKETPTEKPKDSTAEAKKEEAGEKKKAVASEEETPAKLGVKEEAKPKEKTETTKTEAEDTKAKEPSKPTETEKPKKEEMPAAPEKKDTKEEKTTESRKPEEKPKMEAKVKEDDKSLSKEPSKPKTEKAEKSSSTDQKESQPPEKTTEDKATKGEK

Target: T1, neurofilaments (assembled, purified from mouse brain and spinal cord at 4 C) (mouse, UniProt P08551 2-543; P08553 2-848; P19246 1-1090)
T1 construct: Native filament preparation (fractions P2/P3); also called NF; NFs
Experiment: co-purification; co-aggregation in NFHLacZ neurons

binding result: no binding
B1: synapsin II (other, mouse, UniProt Q64332 1-586, looked up)
chain: MMNFLRRRLSDSSFIANLPNGYMTDLQRPEPQQPPPAPGPGAATASAATSAASPGPERRPPPAQAPAPQPAPQPAPTPSVGSSFFSSLSQAVKQTAASAGLVDAPAPSAASRKAKVLLVVDEPHTDWAKCFRGKKILGDYDIKVEQAEFSELNLVAHADGTYAVDMQVLRNGTKVVRSFRPDFVLIRQHAFGMAENEDFRHLVIGMQYAGLPSINSLESIYNFCDKPWVFAQMVAIFKTLGGEKFPLIEQTYYPNHREMLTLPTFPVVVKIGHAHSGMGKVKVENHYDFQDIASVVALTQTYATAEPFIDAKYDIRVQKIGNNYKAYMRTSISGNWKTNTGSAMLEQIAMSDRYKLWVDACSEMFGGLDICAVKAVHGKDGKDYIFEVMDCSMPLIGEHQVEDRQLITDLVISKMNQLLSRTPALSPQRPLTTQQPQSGTLKEPDSSKTPPQRPPPQGGPGQPQGMQPPGKVLPPRRLPSGPSLPSSSSSSSSSSSSSSAPQRPGGPTTTHGDASSSSNSLAEAQAPQAAPAQKPQPHPQLNKSQSLTNAFSFSESSFFRSSANEDEAKAETIRSLRKSFASLFSD
notes: Printed together with synapsin I as 'synapsin I and II'
